The entries are a selection whose mix differs from that of the whole data set. At the low end of the ranking, values are background and their order means little.
What was measured:
Assay in all cases: DAPPL (digital affinity profiling via proximity ligation, sequencing)
Settings in all cases: 10 mM Tris-HCl pH 7.5, 50 mM NaCl, 1 mM DTT, 4% glycerol, room temperature, 30 min; GST-TFs on glutathione beads, 16-mer random dsDNA library, 0.1% …; high values mean tight binding; double strand, one strand shown; scale: fold enrichment (6-mer frequency, TF over GST control)
ELF3 = target: T1, ELF3 (UniProt P78545)
T1 sequence: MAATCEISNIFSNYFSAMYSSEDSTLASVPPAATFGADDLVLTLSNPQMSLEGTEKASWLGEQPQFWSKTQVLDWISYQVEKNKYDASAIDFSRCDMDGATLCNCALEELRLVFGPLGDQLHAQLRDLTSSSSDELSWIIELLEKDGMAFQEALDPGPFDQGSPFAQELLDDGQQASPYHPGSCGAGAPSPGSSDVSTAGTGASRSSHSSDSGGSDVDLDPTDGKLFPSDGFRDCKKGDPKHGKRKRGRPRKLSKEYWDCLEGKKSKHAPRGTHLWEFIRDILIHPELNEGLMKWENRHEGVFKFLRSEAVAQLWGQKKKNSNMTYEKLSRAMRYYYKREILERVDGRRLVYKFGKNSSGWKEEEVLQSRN

By UniProt entry, the sequences of proteins in these tests, tags left out. Where a name states a change or a piece, a line headed by the entry shows the natural chain unless it says otherwise.
UniProt Q9Y603: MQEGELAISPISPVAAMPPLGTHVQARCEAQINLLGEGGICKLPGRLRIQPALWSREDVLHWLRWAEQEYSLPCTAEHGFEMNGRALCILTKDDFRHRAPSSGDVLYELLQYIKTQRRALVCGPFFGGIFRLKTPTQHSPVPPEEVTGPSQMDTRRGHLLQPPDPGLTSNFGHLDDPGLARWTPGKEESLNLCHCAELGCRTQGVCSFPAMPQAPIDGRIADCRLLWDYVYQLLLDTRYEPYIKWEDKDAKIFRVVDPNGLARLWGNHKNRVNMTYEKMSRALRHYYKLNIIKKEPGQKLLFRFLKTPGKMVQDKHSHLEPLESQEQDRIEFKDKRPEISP
UniProt P41212: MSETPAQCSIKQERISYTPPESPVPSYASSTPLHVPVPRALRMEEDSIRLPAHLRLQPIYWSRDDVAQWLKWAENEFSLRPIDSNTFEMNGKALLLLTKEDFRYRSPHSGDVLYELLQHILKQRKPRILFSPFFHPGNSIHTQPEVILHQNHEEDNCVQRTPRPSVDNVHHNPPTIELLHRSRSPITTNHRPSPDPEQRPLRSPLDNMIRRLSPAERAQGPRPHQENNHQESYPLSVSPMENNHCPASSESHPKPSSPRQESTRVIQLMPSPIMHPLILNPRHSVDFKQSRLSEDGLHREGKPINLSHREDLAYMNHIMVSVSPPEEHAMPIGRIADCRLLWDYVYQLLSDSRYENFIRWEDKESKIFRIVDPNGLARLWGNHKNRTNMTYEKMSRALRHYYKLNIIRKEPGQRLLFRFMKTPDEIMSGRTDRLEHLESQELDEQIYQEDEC

ETV7 = ETV7 (UniProt Q9Y603)
ETV6 = ETV6 (UniProt P41212)

GGGGCG
binding signal (ELF3): 0.753 | binding signal (ETV7): 0.638 | binding signal (ETV6): 0.714

CCTAGT
binding signal (ELF3): 1.04 | binding signal (ETV7): 0.973 | binding signal (ETV6): 0.867

CGCGAG
binding signal (ELF3): 0.448 | binding signal (ETV7): 0.625 | binding signal (ETV6): 0.486

GGTGAG
binding signal (ELF3): 0.367 | binding signal (ETV7): 0.383 | binding signal (ETV6): 0.318

GTGCAA
binding signal (ELF3): 1.07 | binding signal (ETV7): 0.969 | binding signal (ETV6): 0.915

ACCAGC
binding signal (ELF3): 0.782 | binding signal (ETV7): 0.878 | binding signal (ETV6): 0.808

CGGTCA
binding signal (ELF3): 0.759 | binding signal (ETV7): 0.894 | binding signal (ETV6): 0.792

GAGACT
binding signal (ELF3): 0.368 | binding signal (ETV7): 0.419 | binding signal (ETV6): 0.385

CAGAGC
binding signal (ELF3): 0.919 | binding signal (ETV7): 0.811 | binding signal (ETV6): 0.818

TGACAG
binding signal (ELF3): 1.09 | binding signal (ETV7): 0.998 | binding signal (ETV6): 0.959

AGCAAG
binding signal (ELF3): 0.951 | binding signal (ETV7): 0.982 | binding signal (ETV6): 0.818

AGACCC
binding signal (ELF3): 0.721 | binding signal (ETV7): 0.621 | binding signal (ETV6): 0.767

AGAGCC
binding signal (ELF3): 0.815 | binding signal (ETV7): 0.674 | binding signal (ETV6): 0.729

AGAGGC
binding signal (ELF3): 0.691 | binding signal (ETV7): 0.745 | binding signal (ETV6): 0.733

CCATCG
binding signal (ELF3): 0.748 | binding signal (ETV7): 0.848 | binding signal (ETV6): 0.782

GACGAT
binding signal (ELF3): 0.812 | binding signal (ETV7): 1 | binding signal (ETV6): 0.885

TCGGTT
binding signal (ELF3): 0.825 | binding signal (ETV7): 0.857 | binding signal (ETV6): 0.949

AGGACG
binding signal (ELF3): 0.457 | binding signal (ETV7): 0.463 | binding signal (ETV6): 0.496

GTCCGA
binding signal (ELF3): 0.862 | binding signal (ETV7): 0.922 | binding signal (ETV6): 0.915

CCAGGC
binding signal (ELF3): 0.438 | binding signal (ETV7): 0.518 | binding signal (ETV6): 0.436

TGAGCA
binding signal (ELF3): 0.906 | binding signal (ETV7): 0.851 | binding signal (ETV6): 0.881

GCCGTG
binding signal (ELF3): 0.242 | binding signal (ETV7): 0.273 | binding signal (ETV6): 0.244

CAAAGG
binding signal (ELF3): 0.88 | binding signal (ETV7): 0.85 | binding signal (ETV6): 0.802

GTCAGG
binding signal (ELF3): 0.55 | binding signal (ETV7): 0.54 | binding signal (ETV6): 0.517

AATCGG
binding signal (ELF3): 0.514 | binding signal (ETV7): 0.57 | binding signal (ETV6): 0.607

GTGTGA
binding signal (ELF3): 0.622 | binding signal (ETV7): 0.596 | binding signal (ETV6): 0.531

CCCAGT
binding signal (ELF3): 0.602 | binding signal (ETV7): 0.745 | binding signal (ETV6): 0.624

GTCAAT
binding signal (ELF3): 0.833 | binding signal (ETV7): 0.9 | binding signal (ETV6): 0.859

AGGTTG
binding signal (ELF3): 0.824 | binding signal (ETV7): 0.808 | binding signal (ETV6): 0.733

ACGTGA
binding signal (ELF3): 0.248 | binding signal (ETV7): 0.292 | binding signal (ETV6): 0.273

GCGCCA
binding signal (ELF3): 0.805 | binding signal (ETV7): 0.74 | binding signal (ETV6): 0.845

GATGTG
binding signal (ELF3): 0.889 | binding signal (ETV7): 0.824 | binding signal (ETV6): 0.975

GCGGCC
binding signal (ELF3): 0.738 | binding signal (ETV7): 0.824 | binding signal (ETV6): 0.75

GACACA
binding signal (ELF3): 0.899 | binding signal (ETV7): 0.934 | binding signal (ETV6): 0.896

GGGTAC
binding signal (ELF3): 0.942 | binding signal (ETV7): 1 | binding signal (ETV6): 0.947

AGTTGA
binding signal (ELF3): 0.775 | binding signal (ETV7): 0.727 | binding signal (ETV6): 0.878

CCGTGC
binding signal (ELF3): 0.562 | binding signal (ETV7): 0.627 | binding signal (ETV6): 0.589

CAGTCT
binding signal (ELF3): 0.662 | binding signal (ETV7): 0.79 | binding signal (ETV6): 0.638

GCCGAG
binding signal (ELF3): 0.583 | binding signal (ETV7): 0.711 | binding signal (ETV6): 0.675

ACAGGC
binding signal (ELF3): 0.74 | binding signal (ETV7): 0.714 | binding signal (ETV6): 0.694

AGTGGA
binding signal (ELF3): 0.827 | binding signal (ETV7): 0.81 | binding signal (ETV6): 0.839

AAGGGG
binding signal (ELF3): 0.996 | binding signal (ETV7): 0.894 | binding signal (ETV6): 0.984

CACGGG
binding signal (ELF3): 0.771 | binding signal (ETV7): 0.805 | binding signal (ETV6): 0.75

AGTGTG
binding signal (ELF3): 0.67 | binding signal (ETV7): 0.744 | binding signal (ETV6): 0.693

GTCGGC
binding signal (ELF3): 0.318 | binding signal (ETV7): 0.442 | binding signal (ETV6): 0.382

GGTCGT
binding signal (ELF3): 0.642 | binding signal (ETV7): 0.68 | binding signal (ETV6): 0.618

AGGACT
binding signal (ELF3): 0.879 | binding signal (ETV7): 0.931 | binding signal (ETV6): 0.883

GTGTAT
binding signal (ELF3): 0.954 | binding signal (ETV7): 0.844 | binding signal (ETV6): 0.876

GAGATT
binding signal (ELF3): 0.661 | binding signal (ETV7): 0.768 | binding signal (ETV6): 0.714

GGACTG
binding signal (ELF3): 0.773 | binding signal (ETV7): 0.715 | binding signal (ETV6): 0.67

AGTCTA
binding signal (ELF3): 0.741 | binding signal (ETV7): 0.741 | binding signal (ETV6): 0.718

CGGGTC
binding signal (ELF3): 0.557 | binding signal (ETV7): 0.718 | binding signal (ETV6): 0.704

GAGGCC
binding signal (ELF3): 0.404 | binding signal (ETV7): 0.436 | binding signal (ETV6): 0.43

GAGCGA
binding signal (ELF3): 0.642 | binding signal (ETV7): 0.687 | binding signal (ETV6): 0.603

GCGAGG
binding signal (ELF3): 0.49 | binding signal (ETV7): 0.671 | binding signal (ETV6): 0.621

GTTGTG
binding signal (ELF3): 0.741 | binding signal (ETV7): 0.948 | binding signal (ETV6): 0.951

AGCGCA
binding signal (ELF3): 0.833 | binding signal (ETV7): 0.994 | binding signal (ETV6): 0.948

GCGCTG
binding signal (ELF3): 0.77 | binding signal (ETV7): 0.821 | binding signal (ETV6): 0.766

ATAGAG
binding signal (ELF3): 0.889 | binding signal (ETV7): 0.865 | binding signal (ETV6): 0.918

CCATGA
binding signal (ELF3): 0.877 | binding signal (ETV7): 0.753 | binding signal (ETV6): 0.834
